Laboratory results taken from paper PMC6927751.
Where two headings read alike, the source gives them in different places. No constants are given. Whether binding was seen depends on the method and setting. Binding seen in cells or lysates may run through a third protein. Some results given as binding are weak or reduced against the parent protein; the word gives no strength. For some of these results: Where a sequence is shown, tags or fusion partners need not be part of it. Values belong to the molecule of their own block, whether it stands above or below them.

By UniProt entry, the sequences of proteins in these tests, tags left out.
UniProt P33176: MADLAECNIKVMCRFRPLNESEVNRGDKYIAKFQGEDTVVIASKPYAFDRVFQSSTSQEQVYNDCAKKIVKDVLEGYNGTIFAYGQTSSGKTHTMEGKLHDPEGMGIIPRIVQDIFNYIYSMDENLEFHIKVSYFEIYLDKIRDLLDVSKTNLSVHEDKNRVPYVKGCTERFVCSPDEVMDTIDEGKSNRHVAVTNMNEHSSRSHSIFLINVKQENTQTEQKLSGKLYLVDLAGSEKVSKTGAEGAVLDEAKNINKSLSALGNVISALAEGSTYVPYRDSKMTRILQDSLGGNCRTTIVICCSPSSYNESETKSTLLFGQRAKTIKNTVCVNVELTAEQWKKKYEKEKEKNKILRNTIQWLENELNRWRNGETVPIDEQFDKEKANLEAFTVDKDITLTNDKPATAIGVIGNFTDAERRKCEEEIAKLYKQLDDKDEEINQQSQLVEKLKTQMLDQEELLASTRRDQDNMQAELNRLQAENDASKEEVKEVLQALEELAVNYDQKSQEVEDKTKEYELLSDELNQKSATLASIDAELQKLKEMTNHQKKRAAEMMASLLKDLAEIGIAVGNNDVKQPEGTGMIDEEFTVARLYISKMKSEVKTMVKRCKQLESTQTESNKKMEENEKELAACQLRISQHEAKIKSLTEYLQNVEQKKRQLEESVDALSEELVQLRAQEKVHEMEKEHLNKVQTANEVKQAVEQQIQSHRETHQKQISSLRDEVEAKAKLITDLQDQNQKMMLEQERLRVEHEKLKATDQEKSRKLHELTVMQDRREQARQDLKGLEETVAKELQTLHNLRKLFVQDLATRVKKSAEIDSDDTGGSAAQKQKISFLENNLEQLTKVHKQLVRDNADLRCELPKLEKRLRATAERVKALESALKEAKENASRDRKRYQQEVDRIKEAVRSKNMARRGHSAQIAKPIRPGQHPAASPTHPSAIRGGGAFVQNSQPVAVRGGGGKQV

Tests used:
[1] = molecular target: T1, mCitrine-protrudin (H. sapiens) (UniProt Q5T4F4); assay: co-IP; GFP-Trap immunoprecipitation of mCitrine-protrudin from lysates of transfected HeLa cells (supernatant after an extra 100000 xg centrifugation), immunoblot of input and IP; in Figure 3F cells treated with TOFA (1 hr at 20 µg/mL) or not
T1 sequence: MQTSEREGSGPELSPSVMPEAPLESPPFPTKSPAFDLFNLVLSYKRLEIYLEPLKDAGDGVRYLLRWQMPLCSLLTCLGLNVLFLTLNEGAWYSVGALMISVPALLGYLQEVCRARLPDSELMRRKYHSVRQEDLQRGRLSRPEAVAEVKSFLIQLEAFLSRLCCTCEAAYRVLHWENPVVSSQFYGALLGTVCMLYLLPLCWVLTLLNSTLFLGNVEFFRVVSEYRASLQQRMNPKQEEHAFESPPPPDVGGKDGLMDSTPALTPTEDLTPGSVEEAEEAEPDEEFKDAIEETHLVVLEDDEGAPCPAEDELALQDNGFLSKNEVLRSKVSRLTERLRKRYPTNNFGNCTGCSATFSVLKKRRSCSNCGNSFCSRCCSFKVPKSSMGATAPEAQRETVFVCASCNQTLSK

[2] = molecular target: T1, mCitrine-protrudin (H. sapiens); assay: as above; remark: listed apart in the source
protrudin-SYFP2 (human) = molecular target: T2, protrudin-SYFP2 (human) (UniProt Q5T4F4); assay: FRET or BRET; FRET in transiently transfected HEK293 cells, mTurquoise2 donor and SYFP2 acceptor, increase of donor intensity after photobleaching; in Figure 3E cells in complete medium (25 mM glucose) or medium without glucose (4 hr)
T2 sequence: T1 sequence

B1: Myc-CPT1C (protein, UniProt F1LN46 1-801)
chain: MAEAHQASSLLSSLSSDGAEVELSSSVWQEIYLSALRSWKRNLWRVWNDFLAGVVPATPLSWLFLFSTIQLACLLQLDPSLGLMEKIKELLPDWGGQHHQLQGLLAAAVFASCLWGTLIFTLHVALRLLLSHHGWLLEPHGTMSSPTKTWLALVRIFSGRHPRLFSFQRALPRQPVPGAQETVRKYLESMRPVLRDDAFDSVVALANDFLRLQAPRLQLYLQLKSWCASNYVSDWWEEFVYLRSRGSLVNSTYYMMDFLYVTPTPLQAARAGNAVHTLLLYRHLLNRQEIPPTLLMGMRPLCSAQYERMFNTTRIPGVEKDYLCHLQDSQHVAVFHQGRFFRVGTHSSNGLLSPRALEQQFQYILDDPSPACPLEEHLAALTAAPRSMWAQVRESVKTHAATALETVEGAAFFVSLDSEPAGLTRENPAASLDTYAHTLLTGQGHDRWFDKSFTLIVFSNGKLGLSVEHSWADCPVAGHLWEFTLATECFQLGYATDGHCKGHPDPALPKPQRLQWDLPKQIQPSISLALRGAKTLSGNIDCHVFPFFHFGKSFIKGCHVSSDSFIQLVLQLAHFRDRGQFCLTYESAMTRLFLEGRTETVRSCTREACQFVRAMENKERTDQQCLALFREAVDKHQALLKAAMSGQGIDRHLFALYIMSRLLHMQSPFLTQVQSQQWLLSTSQIPVQQTHLFDVHNYPDYVSSGGGFGPAHDHGYGVSYIFMGENAISFHISSKQSSTETDSHRLGQHIEDALLDVASLFQAGQQFKRQFTGLGESSGWKYSNLSCKTVDPNIPKSSTNL
- binding [2]: binds

B2: CPT1C-mTurquoise2 (protein, UniProt Q8TCG5 1-803)
chain: MAEAHQAVGFRPSLTSDGAEVELSAPVLQEIYLSGLRSWKRHLSRFWNDFLTGVFPASPLSWLFLFSAIQLAWFLQLDPSLGLMEKIKELLPDWGGQHHGLRGVLAAALFASCLWGALIFTLHVALRLLLSYHGWLLEPHGAMSSPTKTWLALVRIFSGRHPMLFSYQRSLPRQPVPSVQDTVRKYLESVRPILSDEDFDWTAVLAQEFLRLQASLLQWYLRLKSWWASNYVSDWWEEFVYLRSRNPLMVNSNYYMMDFLYVTPTPLQAARAGNAVHALLLYRHRLNRQEIPPTLLMGMRPLCSAQYEKIFNTTRIPGVQKDYIRHLHDSQHVAVFHRGRFFRMGTHSRNSLLSPRALEQQFQRILDDPSPACPHEEHLAALTAAPRGTWAQVRTSLKTQAAEALEAVEGAAFFVSLDAEPAGLTREDPAASLDAYAHALLAGRGHDRWFDKSFTLIVFSNGKLGLSVEHSWADCPISGHMWEFTLATECFQLGYSTDGHCKGHPDPTLPQPQRLQWDLPDQIHSSISLALRGAKILSENVDCHVVPFSLFGKSFIRRCHLSSDSFIQIALQLAHFRDRGQFCLTYESAMTRLFLEGRTETVRSCTREACNFVRAMEDKEKTDPQCLALFRVAVDKHQALLKAAMSGQGVDRHLFALYIVSRFLHLQSPFLTQVHSEQWQLSTSQIPVQQMHLFDVHNYPDYVSSGGGFGPADDHGYGVSYIFMGDGMITFHISSKKSSTKTDSHRLGQHIEDALLDVASLFQAGQHFKRRFRGSGKENSRHRCGFLSRQTGASKASMTSTDF
- binding (protrudin-SYFP2 (human)): binds

More lines, now with the values ahead:

- binding [1]: binds
Molecule: kinesin-1 (KIF5B) (from UniProt P33176 1-963)

- binding [2]: binds
B3: mouse CPT1C stably expressed in HeLa cells (CPT1C cells) (protein, UniProt Q8BGD5 1-798)
chain: MAEAHQASSLLSSLSSDGAEVELSSPVWQEIYLCALRSWKRHLWRVWNDFLAGVVPATPLSWLFLFSTIQLACLLQLDPSLGLMEKIKELLPDWGGQHHQLQGFLSAAVFASCLWGALIFTLHVALRLLLSHHGWLLEPHGAMSSPTKTWLALVRIFSGRHPRLFSFQRALPRQPVPSAQETVRKYLESVRPVLGDDAFDRATALANDFLRLHAPRLQLYLQLKSWCTSNYVSDWWEEFVYLRSRGSLINSTYYMMDFLYVTPTPLQAARAGNAVHTLLLYRHLLNRQEISPTLLMGMRPLCSAQYERMFNTTRIPGVEKDHLRHLQDSRHVAVFHRGRFFRVGTHSPNGLLSPRALEQQFQDILDDPSPACPLEEHLAALTAAPRSMWAQVRESVKTHAATALEAVEGAAFFVSLDSEPAGLTREDPAASLDAYAHALLAGRGHDRWFDKSFTLIVFSNGKLGLSVEHSWADCPVSGHLWEFTLATECFQLGYATDGHCKGHPDPTLPQPQRLQWDLPEQIQPSISLALRGAKTLSGNIDCHVFPFSHFGKSFIKCCHVSSDSFIQLVLQLAHFRDRGQFCLTYESAMTRLFLEGRTETVRSCTREACQFVRAMDNKETDQHCLALFRVAVDKHQALLKAAMSGQGIDRHLFALYIMSRLLHMQSPFLTQVQSQQWLLSTSQVPVQQTHLIDVHNYPDYVSSGGGFGPAHDHGYGISYIFMGENAITFHISSKKSSTETDSHRLGQHIENALLDVASLFRVGQHFKRQFRGENSDYRYNFLSCKTVDPNTPTSSTNL
